Results are given in words; binding and its absence hold for the method and conditions named. Some results given as binding are weak or reduced against the parent protein; the word gives no strength.
Target: Nsp1FG-Cys-His6 (S. cerevisiae)
Assay: QCM-D; Nsp1FG-modified sensor; 1 uM GST-Kap95 flowed for 10 s, 30 s, 1 min, 2 min or 60 min, followed by a dissociation phase; both purified

Sequences of proteins named here, by UniProt entry; tags and fusion partners are left off.
UniProt Q06142: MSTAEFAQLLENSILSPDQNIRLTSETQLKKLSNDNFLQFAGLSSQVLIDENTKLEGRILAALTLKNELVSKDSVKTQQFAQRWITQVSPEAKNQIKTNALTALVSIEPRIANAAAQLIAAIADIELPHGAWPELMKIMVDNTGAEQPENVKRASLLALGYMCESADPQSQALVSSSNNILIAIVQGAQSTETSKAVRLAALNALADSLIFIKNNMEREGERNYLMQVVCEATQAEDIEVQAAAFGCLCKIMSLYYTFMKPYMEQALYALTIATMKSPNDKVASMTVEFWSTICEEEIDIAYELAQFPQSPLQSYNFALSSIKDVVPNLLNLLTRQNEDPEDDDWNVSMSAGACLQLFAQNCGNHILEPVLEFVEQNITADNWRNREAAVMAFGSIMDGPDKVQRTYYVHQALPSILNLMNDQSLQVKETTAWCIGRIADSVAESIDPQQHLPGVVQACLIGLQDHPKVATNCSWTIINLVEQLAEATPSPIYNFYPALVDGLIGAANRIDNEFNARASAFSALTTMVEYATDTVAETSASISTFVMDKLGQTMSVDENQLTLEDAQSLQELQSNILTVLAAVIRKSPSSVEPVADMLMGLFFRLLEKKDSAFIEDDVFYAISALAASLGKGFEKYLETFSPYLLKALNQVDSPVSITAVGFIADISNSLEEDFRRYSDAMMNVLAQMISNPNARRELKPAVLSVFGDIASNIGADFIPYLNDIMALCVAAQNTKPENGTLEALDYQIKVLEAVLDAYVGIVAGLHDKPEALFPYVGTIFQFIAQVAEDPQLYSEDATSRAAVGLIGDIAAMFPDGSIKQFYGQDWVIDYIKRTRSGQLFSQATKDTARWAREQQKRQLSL

## GST-Kap95 (from UniProt Q06142 1-861)
  binding: binds
